Test results reported in PubChem BioAssay AID192 (DTP/NCI, 2004).
The list shows only some results of the screen, not a fair sample: it gathers tests that were run many times, whatever their T/C, doses with no T/C, and many T/C values between a quarter and a half above the control. Further doses and runs are listed elsewhere. T/C gives the treated animals as a percentage of the vehicle group. Some entries give survivors of the animals treated and no T/C: the source holds a T/C of zero for them, seemingly a mark for toxic or unscored doses. Some survivor counts are full or nearly so, which does not show that the dose was tolerated: the source hardly ever lists a survival T/C far under the control, and the zero likely stands for such cases as well. Survivors were counted at the toxicity check, usually on the fifth day, unless a day is given; later deaths do not show. Schedules are NCI's codes, read here as Q, the interval in days (D) or hours (H), X, the number of doses. Some molecules as drawn cover several salts, stereoisomers or complexes of the source; a dose is that of the sample tested. Some doses were run more than once; the results are listed from low to high. Marks such as (2×) give the number of equal values in this list. Where survival is the endpoint, this PubChem deposit counts one and a half times the control or more as active, and values a quarter to a half above the control carry no call in these data; other NCI protocols may use other cut-offs. Some T/C values carry the count of animals alive at the toxicity check (mostly the fifth day); without a count, all were alive then. Peptide text beside a SMILES is read from it. * marks the point of attachment. CH2Cl = ClC*

Tested on: BDF1 mice, B16 melanoma ip, median survival T/C
Experiment: NCI In Vivo Anticancer Drug Screen. Data for tumor model B16 Melanoma (intraperitoneal) in B6D2F1 (BDF1) mice
Conditions: T/C endpoint: median survival time, higher T/C = longer survival
Summary of the method: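 Transplantable tumor model; survival or tumor size measured; reported as T/C, treated over vehicle control.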

[1] = dose: 12.5 mg/kg/injection, schedule: Q01DX009 (ip), vehicle: Klucel (hydroxypropylcellulose) (HPC)
[2] = dose: 25.0 mg/kg/injection, schedule: Q01DX009 (ip), vehicle: Klucel (hydroxypropylcellulose) (HPC)
[3] = dose: 200.0 mg/kg/injection, schedule: Q01DX009 (ip), vehicle: saline with Tween-80
[4] = dose: 25.0 mg/kg/injection, schedule: Q01DX009 (ip), vehicle: saline with Tween-80
[5] = dose: 50.0 mg/kg/injection, schedule: Q01DX009 (ip), vehicle: saline with Tween-80
[6] = dose: 100.0 mg/kg/injection, schedule: Q01DX009 (ip), vehicle: Klucel (hydroxypropylcellulose) (HPC)
[7] = dose: 100.0 mg/kg/injection, schedule: Q01DX009 (ip), vehicle: saline with Tween-80
[8] = dose: 100.0 mg/kg/injection, schedule: Q01DX009 (ip), vehicle: saline
[9] = dose: 100.0 mg/kg/injection, schedule: Q01DX009 (ip), vehicle: water

CC(=O)NC(CC(C)C)C(=O)NC(Cc1ccccc1)C(=O)CCl (stereo not drawn) (Ac-Leu-Phe-CH2Cl; configuration not given here)
survivor count [1]: 10 of 10 | survivor count [2]: 10 of 10

CN=C(N)N/N=C(\C)c1ccc2c(c1)Cc1ccccc1-2
survivor count [3]: 7 of 10 | survivor count (dose: 400.0 mg/kg/injection, schedule: Q01DX009 (ip), vehicle: saline with Tween-80): 1 of 10

OC[CH2][Hg][Br]
survivor count (dose: 6.0 mg/kg/injection, schedule: Q01DX009 (ip), vehicle: saline): 5 of 10

NC(C(=O)O)c1ccc(CBr)cc1 (stereo not drawn)
T/C (dose: 50.0 mg/kg/injection, schedule: Q01DX009 (ip), vehicle: acid diluted with saline): 137 % of control [9 of 10 alive]

O=C1C(=O)c2ccccc2C(O)=C1CC=C(Cl)Cl
T/C [1]: 87, 94 [5 of 6 alive], 96, 97 (4×), 100, 102 (3×), 103, 105 (2×), 106, 112, 113 % of control | T/C (dose: 12.5 mg/kg/injection, schedule: Q01DX009 (ip), vehicle: saline with Tween-80, evaluated on day 45): 94, 97, 105 % of control | T/C (dose: 12.5 mg/kg/injection, schedule: Q01DX009 (ip), vehicle: saline with Tween-80, evaluated on day 60): 96, 96 [5 of 6 alive], 97, 100 % of control (2×) | T/C (dose: 12.5 mg/kg/injection, schedule: Q01DX009 (ip), vehicle: saline): 100, 102, 102 [4 of 6 alive], 103, 111 % of control | T/C [2]: 88, 89 (2×), 94 (2×), 96, 97, 100 (2×), 102, 103, 104 [5 of 6 alive], 105, 106, 111, 118, 120 % of control | T/C (dose: 25.0 mg/kg/injection, schedule: Q01DX009 (ip), vehicle: saline with Tween-80, evaluated on day 45): 91 [5 of 6 alive] and 100 % of control (2×) | T/C (dose: 25.0 mg/kg/injection, schedule: Q01DX009 (ip), vehicle: saline with Tween-80, evaluated on day 60): 96 [5 of 6 alive], 100 (2×), 106 % of control | survivor count [4]: 6 of 6 | T/C (dose: 25.0 mg/kg/injection, schedule: Q01DX009 (ip), vehicle: saline): 91, 93, 94, 96, 111 % of control | T/C (dose: 50.0 mg/kg/injection, schedule: Q01DX009 (ip), vehicle: Klucel (hydroxypropylcellulose) (HPC)): 89, 94 (2×), 95, 97 (2×), 100, 103 (2×), 108, 109, 110 (2×), 112, 115, 116, 120 % of control | T/C (dose: 50.0 mg/kg/injection, schedule: Q01DX009 (ip), vehicle: saline with Tween-80, evaluated on day 45): 100 and 105 % of control | T/C (dose: 50.0 mg/kg/injection, schedule: Q01DX009 (ip), vehicle: saline with Tween-80, evaluated on day 60): 90, 90 [5 of 6 alive], 93 [5 of 6 alive], 103, 120 % of control | survivor count [5]: 3 of 6 | T/C (dose: 50.0 mg/kg/injection, schedule: Q01DX009 (ip), vehicle: saline): 93 (2×), 95 [5 of 6 alive], 97 [5 of 6 alive], 105 % of control | T/C (dose: 50.0 mg/kg/injection, schedule: Q01DX009 (oral), vehicle: water): 125 % of control | T/C [6]: 94 [4 of 6 alive], 100, 102 (2×), 108, 109 [4 of 6 alive], 112 % of control | survivor count [6]: 0 of 6, 3 of 6, 4 of 6, 5 of 6, 6 of 6 | T/C (dose: 100.0 mg/kg/injection, schedule: Q01DX009 (ip), vehicle: saline with Tween-80, evaluated on day 45): 107 % of control | T/C (dose: 100.0 mg/kg/injection, schedule: Q01DX009 (ip), vehicle: saline with Tween-80, evaluated on day 60): 106 % of control [5 of 6 alive] | survivor count [7]: 2 of 6, 3 of 6 (2×), 4 of 6, 6 of 6 | T/C [8]: 89 [4 of 6 alive], 94, 100 % of control | survivor count [8]: 0 of 6, 3 of 6, 6 of 6 | survivor count [9]: 0 of 6 | survivor count (dose: 200.0 mg/kg/injection, schedule: Q01DX009 (oral), vehicle: saline): 5 of 6 | survivor count (dose: 400.0 mg/kg/injection, schedule: Q01DX009 (oral), vehicle: saline): 0 of 6 | survivor count (dose: 400.0 mg/kg/injection, schedule: Q01DX009 (oral), vehicle: water): 0 of 6

CCCCCCCCCCCCCCCCCC[n+]1cccc(C(=O)N2CCOCC2)c1
survivor count (dose: 32.0 mg/kg/injection, schedule: Q01DX009 (ip), vehicle: saline sonified): 6 of 6

Brc1ccc(-c2csc(Nc3nc(-c4ccc(Br)cc4)cs3)n2)cc1
survivor count [7]: 10 of 10 | survivor count [3]: 10 of 10 | survivor count (dose: 400.0 mg/kg/injection, schedule: Q04DX003 (ip), vehicle: saline with Tween-80): 10 of 10

Cc1ccc2c(c1)n([O-])c1cc(Cl)ccc1[n+]2=O
T/C [4]: 129 % of control | T/C [5]: 146 % of control | survivor count [3]: 2 of 10

CCCCN(CCCC)CC(O)c1ccnc2cc3c(cc12)OCO3 (stereo not drawn)
survivor count (dose: 200.0 mg/kg/injection, schedule: Q04DX003 (ip), vehicle: Klucel (hydroxypropylcellulose) (HPC)): 0 of 10 | survivor count (dose: 400.0 mg/kg/injection, schedule: Q04DX003 (ip), vehicle: Klucel (hydroxypropylcellulose) (HPC)): 0 of 10

Cc1ccc(S(=O)(=O)NC(=O)C2C(=O)CC3(CCCCC3)CC2=O)cc1
survivor count (dose: 200.0 mg/kg/injection, schedule: Q01DX009 (ip), vehicle: Klucel (hydroxypropylcellulose) (HPC)): 3 of 10 | survivor count (dose: 400.0 mg/kg/injection, schedule: Q01DX009 (ip), vehicle: Klucel (hydroxypropylcellulose) (HPC)): 0 of 10 and 8 of 10

CC1=C2C(=O)c3ccccc3C2=C(C)S(=O)(=O)O1
survivor count (dose: 200.0 mg/kg/injection, schedule: Q01DX009 (ip), vehicle: carboxymethylcellulose (CMC)): 3 of 10

C[CH2][Pb]([Br])([CH2]C)[CH2]C
survivor count [5]: 10 of 10

NC(=O)Cn1cnc2c(=S)nc[nH]c21
survivor count (dose: 50.0 mg/kg/injection, schedule: Q04DX003 (ip), vehicle: saline with Tween-80): 1 of 10

CNC(=S)N/N=C/CCC/C=N/NC(=S)NC
survivor count (dose: 62.5 mg/kg/injection, schedule: Q01DX009 (ip), vehicle: saline with Tween-80): 6 of 6 | survivor count (dose: 125.0 mg/kg/injection, schedule: Q01DX009 (ip), vehicle: saline with Tween-80): 6 of 6

COc1ccc(NC2=C(C)C(=O)C3=C(C2=O)[C@H](COC(N)=O)[C@]2(OC)[C@@H]4N[C@@H]4CN32)cc1OC
survivor count (dose: 12.0 mg/kg/injection, schedule: Q04DX003 (ip), vehicle: water): 10 of 10 | survivor count (dose: 24.0 mg/kg/injection, schedule: Q04DX003 (ip), vehicle: water): 10 of 10

Nc1n[n+](-c2ccc(Cl)cc2)no1
T/C (dose: 25.0 mg/kg/injection, schedule: Q01DX009 (ip), vehicle: water): 125 % of control | survivor count [9]: 2 of 10

O=C(O)CP(=O)(O)O
survivor count (dose: 128.0 mg/kg/injection, schedule: Q01DX009 (ip), vehicle: saline): 9 of 10

NC(CS/C(Cl)=C/Cl)C(=O)O (stereo not drawn)
survivor count (dose: 40.0 mg/kg/injection, schedule: Q01DX009 (ip), vehicle: other): 5 of 10

COc1c(I)c2c(c(OC)c1OC)-c1ccc(OC)c(=O)cc1C(NC(C)=O)CC2 (stereo not drawn)
T/C (dose: 3.12 mg/kg/injection, schedule: Q01DX009 (ip), vehicle: Klucel (hydroxypropylcellulose) (HPC)): 127 % of control | T/C (dose: 6.25 mg/kg/injection, schedule: Q01DX009 (ip), vehicle: Klucel (hydroxypropylcellulose) (HPC)): 132 % of control | survivor count [1]: 9 of 10 | survivor count [2]: 10 of 10
